The target in experiment [1] is T1, ATG101, BiFC fusion (Arabidopsis) (UniProt F4K265).
T1 sequence: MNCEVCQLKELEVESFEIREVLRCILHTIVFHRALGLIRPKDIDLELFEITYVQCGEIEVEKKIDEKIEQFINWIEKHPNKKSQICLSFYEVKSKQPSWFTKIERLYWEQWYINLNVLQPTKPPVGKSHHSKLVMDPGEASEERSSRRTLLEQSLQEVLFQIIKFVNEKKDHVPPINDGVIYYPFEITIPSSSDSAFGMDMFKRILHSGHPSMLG
Nature of the experiment: split reporter.

Protein sequences, listed by entry. Tags and fused reporters are not part of them. Lines headed by an entry give the natural chain unless they say otherwise; changes in a name come on top. Residues count along the entry.
UniProt P25858: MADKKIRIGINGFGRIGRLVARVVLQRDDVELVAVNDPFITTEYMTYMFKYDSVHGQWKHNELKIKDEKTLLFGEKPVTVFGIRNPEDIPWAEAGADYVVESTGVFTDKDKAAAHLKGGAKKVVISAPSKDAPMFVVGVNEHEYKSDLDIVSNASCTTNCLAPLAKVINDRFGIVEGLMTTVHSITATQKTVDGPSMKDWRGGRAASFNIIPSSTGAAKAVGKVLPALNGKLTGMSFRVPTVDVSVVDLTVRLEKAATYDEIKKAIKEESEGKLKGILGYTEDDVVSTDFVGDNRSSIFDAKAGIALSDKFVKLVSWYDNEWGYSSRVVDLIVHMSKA
UniProt P48491: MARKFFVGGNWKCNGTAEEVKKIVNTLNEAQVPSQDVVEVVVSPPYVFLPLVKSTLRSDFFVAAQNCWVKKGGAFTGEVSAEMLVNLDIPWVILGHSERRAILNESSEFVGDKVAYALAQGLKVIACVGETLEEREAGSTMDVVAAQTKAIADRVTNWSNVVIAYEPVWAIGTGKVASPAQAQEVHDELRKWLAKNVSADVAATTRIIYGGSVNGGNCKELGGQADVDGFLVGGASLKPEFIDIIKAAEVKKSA
UniProt Q9SKP6, residues 61-315: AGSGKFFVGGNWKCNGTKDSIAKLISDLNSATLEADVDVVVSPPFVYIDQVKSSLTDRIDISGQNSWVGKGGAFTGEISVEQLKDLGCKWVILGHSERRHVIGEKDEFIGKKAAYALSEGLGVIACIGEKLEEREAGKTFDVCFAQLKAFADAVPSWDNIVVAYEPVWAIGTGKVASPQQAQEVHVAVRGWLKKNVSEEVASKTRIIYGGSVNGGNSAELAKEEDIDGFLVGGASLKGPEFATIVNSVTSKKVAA

The target in experiment [2] is T2, ATG8a, BiFC fusion (Arabidopsis) (UniProt Q8LEM4).
T2 sequence: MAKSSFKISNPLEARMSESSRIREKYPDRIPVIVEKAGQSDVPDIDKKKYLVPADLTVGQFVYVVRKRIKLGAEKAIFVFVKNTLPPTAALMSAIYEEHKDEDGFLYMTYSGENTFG
Nature of the experiment: split reporter.

Experiment [3] addresses T3, ATG101, yeast two-hybrid fusion (Arabidopsis) (UniProt F4K265).
T3 sequence: T1 sequence
Nature of the experiment: two-hybrid.

The target of experiment [4] is T4, Myc-ATG101 (Arabidopsis) (UniProt F4K265).
T4 sequence: T1 sequence
Nature of the experiment: co-IP.

The target in experiment [5] is T5, ATG13a, BiFC fusion (Arabidopsis) (UniProt Q9SCK0).
T5 sequence: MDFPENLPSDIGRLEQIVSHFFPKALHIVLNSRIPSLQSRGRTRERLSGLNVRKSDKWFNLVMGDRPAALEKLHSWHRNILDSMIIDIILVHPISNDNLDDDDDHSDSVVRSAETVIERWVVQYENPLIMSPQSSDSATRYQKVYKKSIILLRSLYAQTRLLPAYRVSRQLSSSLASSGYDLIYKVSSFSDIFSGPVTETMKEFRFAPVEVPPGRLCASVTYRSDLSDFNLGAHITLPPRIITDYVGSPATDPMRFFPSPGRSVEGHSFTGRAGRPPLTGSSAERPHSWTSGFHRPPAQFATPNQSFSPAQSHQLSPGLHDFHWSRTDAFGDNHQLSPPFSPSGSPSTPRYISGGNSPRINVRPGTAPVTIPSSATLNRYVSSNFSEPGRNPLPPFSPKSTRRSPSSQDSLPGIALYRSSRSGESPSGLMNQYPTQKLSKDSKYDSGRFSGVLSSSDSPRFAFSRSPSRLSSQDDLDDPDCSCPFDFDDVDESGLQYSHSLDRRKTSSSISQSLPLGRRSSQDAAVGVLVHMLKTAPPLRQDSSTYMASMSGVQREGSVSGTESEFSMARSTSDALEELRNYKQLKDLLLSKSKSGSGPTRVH
Nature of the experiment: split reporter.

Experiment [6] addresses T6, ATG13b, BiFC fusion (Arabidopsis) (UniProt F4J8V5).
T6 sequence: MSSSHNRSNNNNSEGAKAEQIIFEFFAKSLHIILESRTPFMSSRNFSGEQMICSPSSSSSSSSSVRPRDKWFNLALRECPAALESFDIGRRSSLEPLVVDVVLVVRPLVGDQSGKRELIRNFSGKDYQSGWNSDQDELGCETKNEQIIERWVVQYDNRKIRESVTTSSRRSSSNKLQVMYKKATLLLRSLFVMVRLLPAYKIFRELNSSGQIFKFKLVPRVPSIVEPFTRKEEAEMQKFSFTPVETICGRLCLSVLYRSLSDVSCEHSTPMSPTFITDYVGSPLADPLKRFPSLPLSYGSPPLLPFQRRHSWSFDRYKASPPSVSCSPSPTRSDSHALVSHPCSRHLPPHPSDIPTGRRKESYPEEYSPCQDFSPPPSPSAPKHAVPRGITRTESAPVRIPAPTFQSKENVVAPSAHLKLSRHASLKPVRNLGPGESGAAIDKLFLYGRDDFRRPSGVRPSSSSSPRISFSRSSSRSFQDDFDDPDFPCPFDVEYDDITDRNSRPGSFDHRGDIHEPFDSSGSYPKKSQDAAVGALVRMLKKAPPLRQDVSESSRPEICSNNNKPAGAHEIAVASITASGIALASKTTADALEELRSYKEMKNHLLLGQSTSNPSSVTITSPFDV
Nature of the experiment: split reporter.

The target in experiment [7] is T7, phosphoglycerate kinase 3 (PGK3), BiFC fusion (Arabidopsis) (UniProt Q9SAJ4).
T7 sequence: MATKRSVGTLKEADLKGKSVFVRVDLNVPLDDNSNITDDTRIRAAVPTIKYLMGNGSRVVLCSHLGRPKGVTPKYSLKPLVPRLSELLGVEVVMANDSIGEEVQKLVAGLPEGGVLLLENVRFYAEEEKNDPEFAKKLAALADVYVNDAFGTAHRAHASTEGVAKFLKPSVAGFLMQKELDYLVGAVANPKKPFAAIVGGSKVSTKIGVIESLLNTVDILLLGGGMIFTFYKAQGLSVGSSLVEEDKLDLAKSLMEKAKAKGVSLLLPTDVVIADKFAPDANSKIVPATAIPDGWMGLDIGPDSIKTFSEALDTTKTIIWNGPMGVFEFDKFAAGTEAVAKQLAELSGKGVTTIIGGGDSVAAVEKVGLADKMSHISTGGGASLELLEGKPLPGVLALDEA
The experiment in a line: split reporter.

In experiment [8] the target is T1, ATG101, BiFC fusion (Arabidopsis). Nature of the experiment: split reporter. This is another data set of the same source.
Experiment [9] concerns the target cytosolic phosphorylating glyceraldehyde-3-phosphate dehydrogenase 1 (GAPC1), BiFC fusion (Arabidopsis) (UniProt P25858). The experiment in a line: split reporter.
For experiment [10], the target named is T5, ATG13a, BiFC fusion (Arabidopsis). Nature of the experiment: split reporter. The source holds these as a separate data set.
In experiment [11] the target is T6, ATG13b, BiFC fusion (Arabidopsis). The experiment in a line: split reporter. The source holds these as a separate data set.
Experiment [12] has as its target T3, ATG101, yeast two-hybrid fusion (Arabidopsis). The experiment in a line: two-hybrid. This is another data set of the same source.

Read-outs that look alike come from different tables or passages of the source. No constants are given. Whether binding was seen depends on the method and setting. For some of these results: In cells and extracts the contact can be indirect. Some entries that bind do so weakly or less than the wild type. For some of these results: Where a sequence is shown, tags or fusion partners need not be part of it.

Turning to “CyTPI^mAIM, BiFC fusion (from UniProt P48491 1-254) (enzyme)”, the binding result in [1] is given as “binds”; in experiment [2], “no binding”.

In the case of “GAPC1, yeast two-hybrid fusion (from UniProt P25858 1-338) (enzyme)”, the binding result in [3] was “binds”.

As to “GAPC1^mAIM, BiFC fusion (from UniProt P25858 1-338) (enzyme)”, the binding entry is “binds” in experiment [1] and “no binding” in experiment [2].

Turning to “HA-CyTPI (from UniProt P48491 1-254) (enzyme)”, the binding entry in experiment [4] is recorded as “binds”.

For “HA-GAPC1 (from UniProt P25858 1-338) (enzyme)”, in experiment [4], the binding result is reported as “binds”.

Consider “cytosolic phosphorylating glyceraldehyde-3-phosphate dehydrogenase 1 (GAPC1), BiFC fusion (from UniProt P25858 1-338) (enzyme)”, for which the binding result was “binds” in experiment [1]; “binds weakly” in [5]; “binds weakly” in experiment [6]; “binds” in experiment [2]; “binds” in experiment [7]; “binds” in [8].

With “cytosolic triose phosphate isomerase (CyTPI), BiFC fusion (from UniProt P48491 1-254) (enzyme)”, the binding entry is given as “binds” in [1]; “binds weakly” in experiment [5]; “binds weakly” in [6]; “binds” in [2]; “binds” in experiment [9]; “binds” in [7]. The binding entry in [8] is “binds”.

In the case of “plastidial triose phosphate isomerase (PdTPI), BiFC fusion (from UniProt Q9SKP6 61-315) (enzyme)”, the binding result in experiment [8], in experiment [10] and in [11] was “no binding” each time.

B1: phosphoglycerate kinase 3 (PGK3), BiFC fusion (enzyme, UniProt Q9SAJ4 1-401)
chain: T7 sequence
As to B1, the binding result is reported as “binds” in experiment [8], “binds weakly” in experiment [10] and “binds weakly” in experiment [11].

B2: HA-PGK3 (enzyme, UniProt Q9SAJ4 1-401)
chain: T7 sequence
B2: the binding entry in [4] was “binds”.

B3: PGK3, yeast two-hybrid fusion (enzyme, UniProt Q9SAJ4 1-401)
chain: T7 sequence
For B3, the binding result in experiment [12] was “binds”.

(Values after paper doi:10.1101/2022.07.12.499818.)
